# Results reported in PubChem BioAssay AID2685 (National Center for Advancing Translational Sciences (NCATS), 2010).
# The list shows a part of the results. Shown are side measurements of this screen, not its main read-out; they come without a call. Most of these compounds were active or inconclusive in the main read-out, so they are no random draw. Potencies come from curve fits of mixed quality, noted in brackets.
# Assay: qHTS Assay for Lipid Storage Modulators in Drosophila S3 Cells;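 as to cell number change: cells counted by Cell Tracker Red CMTPX staining in the red channel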
# Details: BODIPY lipid droplet fluorescence, 18-24 h; for cell number change: measured here: cell count max response, cells fed with added oleic acid
# Summary of the method: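 Drosophila S3 cells loaded with oleic acid (400 uM, as added) and compounds at several concentrations; lipid droplets imaged by 488-nm laser-scanning cytometry, 500–530 nm intensity and object ratio to cell channel. Percent activity normalized to 20 uM Triacsin C.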
# [1] = measured here: lipid fluorescence (Fed channel) AC50, cells fed with added oleic acid
# [2] = measured here: cell number channel AC50, cells fed with added oleic acid
Compound,cell number change [%],AC50 [1],AC50 [2]
Cc1cc(NC(=O)c2ccc(Cl)cc2)n(CCC#N)n1,9.91,"6.51 µM [rising, single point]",
O=C(CCCOc1ccc(Cl)cc1)N1CCOCC1,-19,"29.1 µM [falling, single point]",
CCc1cc(C(=O)Nc2cc(S(=O)(=O)N(CC)CC)ccc2N2CCOCC2)sc1C,-21.2,"29.1 µM [falling, single point]",
CCC(CC)C(=O)OCC(=O)Nc1ccc(S(=O)(=O)N2CCOCC2)cc1OC,25.9,"6.51 µM [rising, single point]","0.291 µM [rising, full curve, poor fit]"
CCC(=O)Nc1ccc2nc(SCC(=O)N3CCCC3)sc2c1,63.5,"3.26 µM [rising, partial curve]",
O=Cc1c(N2CCSCC2)nc2ccccn2c1=O,-25,"0.58 µM [falling, single point]","0.651 µM [falling, single point]"
COc1ccc(CC(=O)NNS(=O)(=O)c2ccccc2[N+](=O)[O-])cc1OC,3.85,"4.11 µM [falling, full curve]",
CCSc1sccc1C1C(C#N)=C(N)N(c2cccnc2)C2=C1C(=O)CC(C)(C)C2 (stereo not given),15,"0.0291 µM [rising, full curve, poor fit]",
COC(=O)c1ccc(COC(=O)C2CCN(S(=O)(=O)c3c(Cl)cccc3Cl)CC2)o1,,"0.231 µM [rising, partial curve, poor fit]",
Cc1nn(-c2ccccc2)c(Cl)c1CN(C(=O)CCl)c1ccc(Cl)cc1,-28.8,"9.2 µM [falling, partial curve]",
C=CCn1c(CCC)nc2ccccc21,-9.87,"2.06 µM [falling, partial curve, poor fit]",
CCOC(=O)Cn1nc(C)n(-c2ccc(F)cc2)c1=O,-56.7,,
COc1ccc(C(=O)NCc2nnc(SCC(=O)N3CCc4ccccc43)n2Cc2ccccc2)cc1,49.3,,"16.4 µM [rising, single point]"
CCCCOc1ccc(C(=O)NCC(=O)NCC(c2ccco2)N2CCCCC2)cc1 (stereo not given),31,,"11.6 µM [rising, partial curve, poor fit]"
Cc1cc(NC(=O)c2ccc(NC(=O)C3CC3)cc2)no1,89.8,"6.51 µM [falling, partial curve, poor fit]","6.51 µM [falling, partial curve, poor fit]"
CC(/C=C1\SC(=S)N(CCC(=O)Nc2ccc(O)cc2)C1=O)=C\c1ccccc1,-62.1,"10.3 µM [falling, partial curve, poor fit]","9.2 µM [falling, partial curve]"
CN(c1ccc(C(=O)Nc2cccnc2)cc1)S(C)(=O)=O,6.43,,"0.731 µM [rising, single point]"
COc1ccccc1-c1noc(-c2ccccc2C(=O)Nc2ccccc2)n1,26.3,,"0.0058 µM [rising, full curve, poor fit]"
COc1cccc(/C=N/NC(=O)c2ccc(OCc3cccc(Br)c3)cc2)c1,34.5,,"13 µM [rising, partial curve, poor fit]"

# An excerpt from above, reduced to AC50 [1] and AC50 [2].
Compound	AC50 [1]	AC50 [2]
O=C(CCCOc1ccc(Cl)cc1)N1CCOCC1	29.1 µM [falling, single point]	
CCc1cc(C(=O)Nc2cc(S(=O)(=O)N(CC)CC)ccc2N2CCOCC2)sc1C	29.1 µM [falling, single point]	

# The listing continues:

Compound,cell number change [%],AC50 [1],AC50 [2]
COC(=O)c1ccc(C)c(NC(=O)CCSc2ccccc2)c1,,"29.1 µM [falling, single point]",
Cn1nc(-c2ccccc2)c(-c2nc(-c3cccc(Cl)c3)no2)c1Cl,,"2.31 µM [rising, partial curve]","0.82 µM [rising, partial curve, poor fit]"
CC(=O)Nc1ccc(S(=O)(=O)NCCC(=O)N2CCC(Cc3ccccc3)CC2)cc1,29,"0.231 µM [rising, full curve, poor fit]",
COc1ccc(C2(O)CCN(C(=O)c3c(F)cccc3F)CC2)cc1,-7.05,"0.103 µM [falling, full curve, poor fit]",
CC1(C)CC(=O)C(=CN2CCOCC2)C(=O)C1,-24.3,,"5.17 µM [rising, partial curve, poor fit]"
C(=N\C(/N=C/c1ccco1)c1ccco1)/c1ccco1,13,"2.59 µM [rising, partial curve, poor fit]",
CS(=O)(=O)c1ccc2nc(NC(=O)CN3C(=O)NC4(CCCC4)C3=O)sc2c1,4.42,"18.4 µM [rising, single point]",
Cc1ccc(-c2ccc(=O)n(Cc3cc(C)ccc3C)n2)cc1,-76.8,"11.6 µM [falling, single point]","29.1 µM [falling, single point]"
O=C(c1ccc(F)cc1)N1CCN(C2CC3CCC2C3)CC1 (stereo not given),-10.1,,
O=C(O)c1ccc(OCc2ccc(C(=O)O)o2)cc1,-45,,"29.1 µM [falling, single point]"
C=CCN1C(=O)C(Cc2ccc(OC)cc2)S/C1=N/N=C/c1ccco1 (stereo not given),,"1.64 µM [rising, partial curve]","2.59 µM [rising, partial curve]"
C=C(C)CSc1nnc(-c2ccccc2)n1N,1.74,,
Cc1ccc(S(=O)(=O)NCc2ccccc2)s1,12.5,,
O=C(OCC(=O)N1CCCc2ccccc21)c1cc(S(=O)(=O)N2CCOCC2)ccc1F,-14.8,"29.1 µM [rising, single point]",
COc1ccc(OC)c(NC(=O)c2cc(-c3cc(Cl)ccc3O)n[nH]2)c1,-31.6,"0.231 µM [rising, full curve, poor fit]","32.6 µM [falling, single point]"
Cc1ccc(S(=O)(=O)NC2CCCCCC2)cc1C(N)=O,-7.92,"29.1 µM [rising, single point]",
Cc1cccn2c(CNCCCn3ncc4ccccc43)c(C(=O)N3CCCCC3)nc12,-24.7,"3.26 µM [falling, single point]",
Cc1ccc(S(=O)(=O)N2CCN(C(=O)CN3CCCCC3)C2)cc1,-27.1,"20.6 µM [falling, single point]","3.66 µM [falling, full curve, poor fit]"
